{"source": "patent US20250066691A1", "about": "“SOLVENT-BASED DETERGENT COMPOSITIONS AND METHODS FOR HYDROPHOBIC SOIL REMOVAL” (ECOLAB USA INC., priority 2023, published 2025)", "note": "Structures can show the parent of a compound that is named as a salt."}
{"experiment": "Soiled coupon cleaning method, lipstick soil on stainless steel coupons (Example 1)", "conditions": "composition with the named solvent, approx. 4% concentration, 30 minutes, 140° F. (60° C.), agitation, observed every 5 minutes"}
{"smiles": "CCCCC(CC)COCCO", "note": "(stereo not drawn) [2-2(2-Ethylhexyloxy)ethanol]", "Visual Result (visual rating of soil removal, 1=no soil removal, 5=complete soil removal, averaged over observations)": 1.71}
{"smiles": "CCCCC(CC)COC(=O)[C@H](C)O", "note": "(stereo partly drawn) [2-Ethylhexyl Lactate, 2-Ethylhexyl L-Lactate]", "Visual Result (visual rating of soil removal, 1=no soil removal, 5=complete soil removal, averaged over observations)": 3.29}
{"smiles": "OCc1ccccc1", "note": "[Benzyl Alcohol]", "Visual Result (visual rating of soil removal, 1=no soil removal, 5=complete soil removal, averaged over observations)": 1}
{"smiles": "CCCCCCOCCOCCO", "note": "[Diethylene glycol monohexyl ether]", "Visual Result (visual rating of soil removal, 1=no soil removal, 5=complete soil removal, averaged over observations)": 1}
{"smiles": "CC(C)COC(=O)CCCCC(=O)OCC(C)C", "note": "[Diisobutyl Adipate]", "Visual Result (visual rating of soil removal, 1=no soil removal, 5=complete soil removal, averaged over observations)": 1}
{"smiles": "CCCCCCCCCCCCO", "note": "[Dodecanol (Lauryl Alcohol), Dodecanol]", "Visual Result (visual rating of soil removal, 1=no soil removal, 5=complete soil removal, averaged over observations)": 1}
{"smiles": "CCOC(=O)C(C)O", "note": "(stereo not drawn) [Ethyl Lactate]", "Visual Result (visual rating of soil removal, 1=no soil removal, 5=complete soil removal, averaged over observations)": 1}
{"smiles": "CC(=O)OCC(COC(C)=O)OC(C)=O", "note": "[Glycerol Triacetate]", "Visual Result (visual rating of soil removal, 1=no soil removal, 5=complete soil removal, averaged over observations)": 1}
{"smiles": "C=C(C)[C@H]1CC=C(C)CC1", "note": "[Limonene]", "Visual Result (visual rating of soil removal, 1=no soil removal, 5=complete soil removal, averaged over observations)": 1}
{"smiles": "CCCCCCCC(=O)O", "note": "[Octanoic acid]", "Visual Result (visual rating of soil removal, 1=no soil removal, 5=complete soil removal, averaged over observations)": 1.29}
{"smiles": "CC(O)COc1ccccc1", "note": "(stereo not drawn) [Propylene glycol phenyl ether]", "Visual Result (visual rating of soil removal, 1=no soil removal, 5=complete soil removal, averaged over observations)": 1}
{"smiles": "Cc1ccccc1", "note": "[Toluene]", "Visual Result (visual rating of soil removal, 1=no soil removal, 5=complete soil removal, averaged over observations)": 1}
{"smiles": "CCOC(=O)CC(O)(CC(=O)OCC)C(=O)OCC", "note": "[Triethyl Citrate]", "Visual Result (visual rating of soil removal, 1=no soil removal, 5=complete soil removal, averaged over observations)": 1}
{"smiles": "CCCCOC(C)COC(C)COC(C)CO", "note": "(stereo not drawn) [Tripropylene glycol butyl ether]", "Visual Result (visual rating of soil removal, 1=no soil removal, 5=complete soil removal, averaged over observations)": 3}
{"experiment": "Soiled coupon cleaning method, lipstick soil on stainless steel coupons (Example 1)", "conditions": "composition with the named solvent, approx. 4% concentration, 30 minutes, 140° F. (60° C.), agitation, observed every 5 minutes; listed as toluene"}
{"smiles": "Cc1ccccc1", "note": "[Toluene]", "Visual Result (visual rating of soil removal, 1=no soil removal, 5=complete soil removal, averaged over observations)": "no efficacy"}
